PubChem BioAssay AID1259254 – NCATS – 2017
Here is an unselected part of about 59,000 deposited reagents. Of all reagents, about 1,550 (2.6%) got an active call. 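G2 share is only a proxy for re-replication; each gene was hit by three separate siRNAs, and active genes were retested.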 Reagents against one gene are numbered here. Further read-outs or replicates are left out here. The record does not give: the amount of reagent.

- Aim: 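Gene knock-downs that lead to re-replication, shown by excess G2 DNA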 (primary screen)
- Cells: human HCT116 colorectal cancer cells
- Knock-down reagent: single siRNA against human genes
- Duration: 3 days
- Detection: 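Imaged Hoechst DNA stain sorts each cell into a cycle phase by DNA amount; per plate, G2 fraction set to 0% for non-targeting and 100% for GMNN siRNA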
- Reading the numbers: G2 robust z-score: higher = more G2 cells, more excess DNA replication
- Hit rule: 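An siRNA counts as active if its G2 robust z-score lies at least 5 MADs above the screen median; here such calls match roughly 38% of GMNN control or more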

{"gene symbol": "NGLY1 (GeneID 55768)", "reagent no.": 1, "G2 robust z-score": 3.29, "activity call": "inactive"}
{"gene symbol": "NGLY1 (GeneID 55768)", "reagent no.": 2, "G2 robust z-score": 0.0335, "activity call": "inactive"}
{"gene symbol": "NGLY1 (GeneID 55768)", "reagent no.": 3, "G2 robust z-score": 1.03, "activity call": "inactive"}
{"gene symbol": "MUC3B (GeneID 57876)", "reagent no.": 1, "G2 robust z-score": 1.71, "activity call": "inactive"}
{"gene symbol": "MUC3B (GeneID 57876)", "reagent no.": 2, "G2 robust z-score": 0.43, "activity call": "inactive"}
{"gene symbol": "MUC3B (GeneID 57876)", "reagent no.": 3, "G2 robust z-score": -0.387, "activity call": "inactive"}
{"gene symbol": "MUC3B (GeneID 57876)", "reagent no.": 4, "G2 robust z-score": -0.327, "activity call": "inactive"}
{"gene symbol": "MUC3B (GeneID 57876)", "reagent no.": 5, "G2 robust z-score": 0.549, "activity call": "inactive"}
{"gene symbol": "MUC3B (GeneID 57876)", "reagent no.": 6, "G2 robust z-score": 0.0992, "activity call": "inactive"}
{"gene symbol": "RNF13 (GeneID 11342)", "reagent no.": 1, "G2 robust z-score": 0.0535, "activity call": "inactive"}
{"gene symbol": "RNF13 (GeneID 11342)", "reagent no.": 2, "G2 robust z-score": -0.712, "activity call": "inactive"}
{"gene symbol": "RNF13 (GeneID 11342)", "reagent no.": 3, "G2 robust z-score": -1.04, "activity call": "inactive"}
{"gene symbol": "HSDL2 (GeneID 84263)", "reagent no.": 1, "G2 robust z-score": 0.258, "activity call": "inactive"}
{"gene symbol": "HSDL2 (GeneID 84263)", "reagent no.": 2, "G2 robust z-score": -0.824, "activity call": "inactive"}
{"gene symbol": "HSDL2 (GeneID 84263)", "reagent no.": 3, "G2 robust z-score": -0.276, "activity call": "inactive"}
{"gene symbol": "VWA2 (GeneID 340706)", "reagent no.": 1, "G2 robust z-score": -0.529, "activity call": "inactive"}
{"gene symbol": "VWA2 (GeneID 340706)", "reagent no.": 2, "G2 robust z-score": 3.1, "activity call": "inactive"}
{"gene symbol": "VWA2 (GeneID 340706)", "reagent no.": 3, "G2 robust z-score": 0.422, "activity call": "inactive"}
{"gene symbol": "COL27A1 (GeneID 85301)", "reagent no.": 1, "G2 robust z-score": -0.242, "activity call": "inactive"}
{"gene symbol": "COL27A1 (GeneID 85301)", "reagent no.": 2, "G2 robust z-score": -0.562, "activity call": "inactive"}
{"gene symbol": "COL27A1 (GeneID 85301)", "reagent no.": 3, "G2 robust z-score": -0.228, "activity call": "inactive"}
{"gene symbol": "SET (GeneID 6418)", "reagent no.": 1, "G2 robust z-score": 1.03, "activity call": "inactive"}
{"gene symbol": "SET (GeneID 6418)", "reagent no.": 2, "G2 robust z-score": -0.766, "activity call": "inactive"}
{"gene symbol": "SET (GeneID 6418)", "reagent no.": 3, "G2 robust z-score": -0.857, "activity call": "inactive"}
{"gene symbol": "CDRT15 (GeneID 146822)", "reagent no.": 1, "G2 robust z-score": 0.527, "activity call": "inactive"}
{"gene symbol": "CDRT15 (GeneID 146822)", "reagent no.": 2, "G2 robust z-score": 1.28, "activity call": "inactive"}
{"gene symbol": "CDRT15 (GeneID 146822)", "reagent no.": 3, "G2 robust z-score": -0.465, "activity call": "inactive"}
{"gene symbol": "IHH (GeneID 3549)", "reagent no.": 1, "G2 robust z-score": 1.16, "activity call": "inactive"}
{"gene symbol": "IHH (GeneID 3549)", "reagent no.": 2, "G2 robust z-score": 1.4, "activity call": "inactive"}
{"gene symbol": "IHH (GeneID 3549)", "reagent no.": 3, "G2 robust z-score": -0.412, "activity call": "inactive"}

Entries above whose gene name starts with H or h:
{"gene symbol": "HSDL2 (GeneID 84263)", "reagent no.": 1, "G2 robust z-score": 0.258, "activity call": "inactive"}
{"gene symbol": "HSDL2 (GeneID 84263)", "reagent no.": 2, "G2 robust z-score": -0.824, "activity call": "inactive"}
{"gene symbol": "HSDL2 (GeneID 84263)", "reagent no.": 3, "G2 robust z-score": -0.276, "activity call": "inactive"}
